Source: paper PMC3977970
Residue numbers refer to the chain shown, from its start. These are yes or no findings as the source states them, for the method shown. Binding seen in cells or lysates may run through a third protein. Some entries that bind do so weakly or less than the wild type. Where a sequence is shown, tags or fusion partners need not be part of it.

Columns and labels:
[1] = biological target: T1, FLAG-PTPMT1 (wildtype) (human) (UniProt Q8WUK0); experiment: co-IP; V5-MK-STYX and FLAG-PTPMT1 co-transfected in 293FT cells; lysate 48 h after transfection; anti-FLAG antibody 2 h at 4°C, Protein G beads; washes with 1% NP40 in PBS and TNE buffer; immunoblot
T1 sequence: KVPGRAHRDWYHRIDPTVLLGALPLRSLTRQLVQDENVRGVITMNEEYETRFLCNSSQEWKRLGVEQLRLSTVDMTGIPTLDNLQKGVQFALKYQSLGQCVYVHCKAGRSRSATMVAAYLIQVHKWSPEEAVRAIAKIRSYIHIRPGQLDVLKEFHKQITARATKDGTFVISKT

[2] = biological target: T2, FLAG-PTPMT1 C132S (human) (UniProt Q8WUK0); experiment: as above
T2 sequence: T1 sequence with C105S

binding [1]: binds | binding [2]: binds
Substance: V5-MK-STYX (from UniProt Q9Y6J8-1 1-313)
